Patent US20090143724A1, “Microprojection Array Immunization Patch and Method” (Alza Corporation, priority 2001, published 2009)

What was measured:
[1] = Amount of OVA coated on microprojection arrays by immersion (FITC-OVA extraction, luminescence spectrometry); settings: FITC-labeled ovalbumin, 2 cm^2 array, mean ± SEM
[2] = Example 2: amount coated on tip-coated microprojection arrays (fluorimetry / total protein assay); settings: for Amount coated on the array: 20 wt % FITC-ovalbumin, tip coating, 2 cm^2 array

B1: ovalbumin (protein, UniProt P01012 2-386, looked up)
Ovalbumin: GSIGAASMEFCFDVFKELKVHHANENIFYCPIAIMSALAMVYLGAKDSTRTQINKVVRFDKLPGFGDSIEAQCGTSVNVHSSLRDILNQITKPNDVYSFSLASRLYAEERYPILPEYLQCVKELYRGGLEPINFQTAADQARELINSWVESQTNGIIRNVLQPSSVDSQTAMVLVNAIVFKGLWEKAFKDEDTQAMPFRVTEQESKPVQMMYQIGLFRVASMASEKMKILELPFASGTMSMLVLLPDEVSGLEQLESIINFEKLTEWTSSNVMEERKIKVYLPRMKMEEKYNLTSVLMAMGITDVFSSSANLSGISSAESLKISQAVHAAHAEINEAGREVVGSAEAGVDAASVSEEFRADHPFLFCIKHIATNAVLFFGRCVSP
modifications: FITC label (in one form)
notes: model protein antigen (Grade V, SIGMA); FITC-labeled form used for coating and delivery quantitation
[1]; 1% ovalbumin coating concentration
  Amount of ovalbumin coated on microprojection array: approximately 7 μg/cm^2
[1]; 1% ovalbumin coating concentration, listed as Ovalbumin
  Amount of ovalbumin coated on microprojection array: 7.4 ± 0.6 μg/cm^2
[1]; 5% ovalbumin coating concentration
  Amount of ovalbumin coated on microprojection array: about 40 μg/cm^2
[1]; 5% ovalbumin coating concentration, listed as Ovalbumin
  Amount of ovalbumin coated on microprojection array: 42.2 ± 1.9 μg/cm^2
[1]; 20% ovalbumin coating concentration
  Amount of ovalbumin coated on microprojection array: about 240 μg/cm^2
[1]; 20% ovalbumin coating concentration, listed as Ovalbumin
  Amount of ovalbumin coated on microprojection array: 238 ± 20 μg/cm^2
[2]; 1 coating
  Amount coated on the array: 1.8 µg
[2]; 2 coatings
  Amount coated on the array: 3.7 µg
[2]; 4 coatings
  Amount coated on the array: 4.3 µg
[2]; coating solution 2 wt % ovalbumin and 10 wt % GMDP, eight coatings
  Ovalbumin coated per microprojection array: 2.2 µg
[2]; untagged ovalbumin, 20 wt % OVA coating solution, total protein assay, target dose 5 μg
  Amount of protein coated on the arrays: 4.6 ± 0.5 µg
